Measured values from PMC9307593.
These are yes or no findings as the source states them, for the method shown. Binding calls can cover weak binding; strength is not graded here. For part of these data: In cells and extracts the contact can be indirect. For part of these data: Tags and fused reporters may be left off the sequences shown. Values belong to the molecule of their own block, whether it stands above or below them.

Tests used:
[1] = target: T1, Flag-tagged NUPR1 (wild type) (UniProt O60356); assay: proximity ligation; MiaPaCa-2 cells transfected with Flag WT-NUPR1 or the mutants Thr68Gln, Ala33Gln, Thr68Gln/Ala33Gln; PARP1 and Flag primary antibodies
T1 sequence: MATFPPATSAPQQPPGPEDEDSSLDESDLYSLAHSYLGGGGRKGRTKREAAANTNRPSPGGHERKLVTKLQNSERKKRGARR

[2] = target: T2, GFP-tagged NUPR1 (UniProt O60356); assay: co-IP; MiaPaCa-2 cells transfected with PARP1-Flag and NUPR1-GFP plasmids; anti-FLAG or anti-GFP agarose beads, blots with anti-GFP or anti-Flag; with or without ZZW-115
T2 sequence: T1 sequence

[3] = target: T3, recombinant wild-type NUPR1 (UniProt O60356); assay: co-IP; recombinant NUPR1 and PARP1 mixed 1:1 (2 ug of each); Dynabeads and anti-NUPR1 antibody; eluate analysed by Western blotting; both purified
T3 sequence: T1 sequence

[4] = target: T3, recombinant wild-type NUPR1; assay: far-UV circular dichroism; spectrum of the mixture against the sum of the spectra of the isolated proteins; PARP1 2 uM, NUPR1 20 uM, 25 °C, pH 7.5, 50 mM Tris; both purified
[5] = target: T3, recombinant wild-type NUPR1; assay: fluorescence spectra; spectrum of the mixture against the sum of the spectra of the isolated proteins; PARP1 2 uM, NUPR1 20 uM, 25 °C, pH 7.5, 50 mM Tris; both purified
[6] = target: PARP1-Flag; assay: co-IP; MiaPaCa-2 cells transfected with PARP1-Flag and NUPR1-GFP plasmids; anti-FLAG or anti-GFP agarose beads, blots with anti-GFP or anti-Flag; with or without ZZW-115

binding [1]: binds
Molecule: PARP1 (endogenous, MiaPaCa-2 cells) (human (endogenous in MiaPaCa-2)) (enzyme)

binding [2]: binds
Molecule: PARP1-Flag (enzyme)

binding [3]: binds
binding [4]: binds
binding [5]: binds
Molecule: recombinant PARP1 (enzyme)

binding [6]: binds
B1: GFP-tagged NUPR1 (protein, UniProt O60356 1-82)
chain: T1 sequence
